# Test results taken from patent publication US20100210713A1, “REGENERATION AND SURVIVAL OF CARDIAC PROGENITORS AND CARDIOMYOCYTES WITH A STRETCH ACTIVATED TRANSCRIPTION FACTOR” (THE GENERAL HOSPITAL CORPORATION, priority 2009, published 2010).
# No constants are given. Whether binding was seen depends on the method and setting. Binding seen in cells or lysates may run through a third protein. Some entries that bind do so weakly or less than the wild type. Tags and fused reporters may be left off the sequences shown.
# T1: Flag-tagged Creb312(N) (3xFlag-Creb312(N)) (human) (UniProt Q70SY1)
# T1 sequence: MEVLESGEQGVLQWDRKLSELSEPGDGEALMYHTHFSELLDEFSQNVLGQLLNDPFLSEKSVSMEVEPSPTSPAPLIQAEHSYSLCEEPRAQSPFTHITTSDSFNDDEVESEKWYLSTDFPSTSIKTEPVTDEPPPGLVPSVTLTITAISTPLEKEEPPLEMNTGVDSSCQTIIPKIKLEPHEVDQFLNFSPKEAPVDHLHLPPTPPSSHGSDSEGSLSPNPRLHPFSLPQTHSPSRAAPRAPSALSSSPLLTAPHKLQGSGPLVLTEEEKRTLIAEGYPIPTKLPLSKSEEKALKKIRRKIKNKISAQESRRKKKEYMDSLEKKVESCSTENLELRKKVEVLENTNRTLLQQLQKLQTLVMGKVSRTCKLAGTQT
# T2: endogenous nuclear form of Creb312 from nuclear extracts of mouse embryonic hearts (mouse) (UniProt Q8BH52)
# T2 sequence (looked up): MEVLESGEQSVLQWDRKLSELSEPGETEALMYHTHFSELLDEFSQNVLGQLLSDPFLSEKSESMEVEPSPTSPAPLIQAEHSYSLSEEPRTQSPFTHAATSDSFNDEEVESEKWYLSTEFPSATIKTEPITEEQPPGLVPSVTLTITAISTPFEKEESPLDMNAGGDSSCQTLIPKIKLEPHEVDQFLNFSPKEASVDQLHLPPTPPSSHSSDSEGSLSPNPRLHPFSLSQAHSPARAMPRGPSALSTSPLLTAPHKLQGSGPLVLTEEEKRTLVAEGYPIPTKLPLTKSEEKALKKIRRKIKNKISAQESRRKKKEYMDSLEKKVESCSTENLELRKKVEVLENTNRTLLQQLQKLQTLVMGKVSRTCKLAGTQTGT
# B1: HA-tagged Creb312(N) (protein, not shown: small tags and cut ends)
# chain: T1 sequence
# B2: Flag-tagged Creb312(N) (3xFlag-Creb312(N)) (protein, not shown: small tags and cut ends)
# chain: T1 sequence
# Columns and labels:
# [1] = target: T1, Flag-tagged Creb312(N) (3xFlag-Creb312(N)) (human); test: co-immunoprecipitation from COS7 cells: anti-Flag IP, anti-HA immunoblot (FIG. 2C)
# [2] = target: T1, Flag-tagged Creb312(N) (3xFlag-Creb312(N)) (human); test: co-immunoprecipitation from cotransfected COS7 cells: anti-Flag IP, anti-HA immunoblot
# [3] = target: T2, endogenous nuclear form of Creb312 from nuclear extracts of mouse embryonic hearts (mouse); test: co-immunoprecipitation on anti-Flag M2 gel from heart nuclear extract, immunoblot with anti-Creb312
# [4] = target: T2, endogenous nuclear form of Creb312 from nuclear extracts of mouse embryonic hearts (mouse); test: co-immunoprecipitation on anti-Flag M2 gel from heart nuclear extract, immunoblot with anti-Creb312 (FIG. 2D, 2E)
binding [1],binding [2],binding [3],binding [4],Binder
binds,binds,–,–,B1
–,–,binds,binds,B2
